This is an account of results in paper doi:10.1101/2022.09.23.509242.

The chains behind the UniProt entries cited, without tags or fusion partners.
UniProt Q01860: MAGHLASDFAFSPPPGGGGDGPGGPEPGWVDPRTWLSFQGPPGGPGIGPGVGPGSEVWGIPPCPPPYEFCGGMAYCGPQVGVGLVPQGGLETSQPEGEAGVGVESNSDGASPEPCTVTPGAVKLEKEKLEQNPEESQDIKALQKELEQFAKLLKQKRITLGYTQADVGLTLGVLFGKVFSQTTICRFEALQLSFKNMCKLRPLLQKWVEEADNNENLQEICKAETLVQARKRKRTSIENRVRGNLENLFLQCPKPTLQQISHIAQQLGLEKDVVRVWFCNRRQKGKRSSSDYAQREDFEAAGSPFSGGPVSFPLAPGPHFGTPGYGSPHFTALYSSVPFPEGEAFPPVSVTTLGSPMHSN
UniProt P48431: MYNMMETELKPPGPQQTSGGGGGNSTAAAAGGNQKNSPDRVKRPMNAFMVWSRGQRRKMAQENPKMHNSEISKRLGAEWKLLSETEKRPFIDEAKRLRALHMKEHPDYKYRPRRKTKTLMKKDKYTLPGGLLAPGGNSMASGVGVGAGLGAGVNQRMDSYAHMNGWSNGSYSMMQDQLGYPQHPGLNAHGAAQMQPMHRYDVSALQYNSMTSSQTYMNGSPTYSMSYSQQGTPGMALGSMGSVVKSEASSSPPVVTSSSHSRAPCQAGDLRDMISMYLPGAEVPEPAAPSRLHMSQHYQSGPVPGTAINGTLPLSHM

Results are given in words; binding and its absence hold for the method and conditions named. Some entries that bind do so weakly or less than the wild type.

This assay concerns the target endogenous Oct4 of human iPSCs (human (endogenous in hiPSCs)) (UniProt Q01860). In words: native gel or EMSA. A general note: Mobility shift assays separate free from complexed probe on a gel.

Consider “endogenous Sox2 of human iPSCs (from UniProt P48431 1-317)”, for which the binding entry is “binds weakly”.
